According to PMC9306950 (Clinical Pharmacology in Drug Development, 2022):

Columns and labels:
[1] = concomitant roxadustat vs statin alone
clinical = conditions: human, plasma, oral, 40 mg

For `CC(C)c1c(C(=O)Nc2ccccc2)c(-c2ccccc2)c(-c2ccc(F)cc2)n1CC[C@@H](O)C[C@@H](O)CC(=O)O` [Atorvastatin], the “CL/F lower in the presence of roxadustat” value [1] was 50%, the AUC(0-inf) (clinical) was 94.1 ng·h/mL and the Cmax (clinical) was 15.3 ng/mL. For the same molecule, the Tmax (clinical) was 54 min.
